In patent US5410052A, “Symmetrical and unsymmetrical polyalkylamine metal complexes for ligand extraction and generation” (The Regents of the University of California, priority 1990, dated 1995):

Test: Demonstration unit results for cobalt carrier compounds
Details: cobalt complex
From the text: These components together form a sealed system containing a fixed volume of ligand carrier and carrier fluid. The apparatus shown in FIG. 9 is generally of a type generally intended for relatively larger scale production of oxygen. The electrochemical cell comprises twenty parallel TEFLON® (polytetrafluoroethylene, a trademark of the DuPont Company, Wilmington, Del.) plates having sputtered gold surfaces, between which the carrier fluid id directed, in parallel. The plates are 3 mm thick and spaced at a distance of 1 mm. An individual place is 62.5 cm long and 8 cm wide. When stacked in a parallel plate arrangement, the twenty layers have a total height of 8 cm. The use of a bipolar cell such as this enables the use of higher voltages at proportionately small currents than would be required to operate a single anode, single cathode cell of the same surface area. The electrochemical cell is connected to a voltage supply capable of providing 20 amps at 0.1 volt. The unloading station comprises one or more (one is shown) hollow fiber cartridges 1 inch in diameter and 43 inches in length containing hollow fibers which consist of porous polysulfone with an interior silicon rubber skin. The surface area of the hollow fibers is 0.25 m^2. When more than one such cartridge is used, they are arranged for parallel flow to a commensurate fraction of the total carrier fluid flow through the apparatus. Polyvinylchloride or polypropylene piping is used to connect various inlet and outlet ports. The outlet port of the first electrode compartment is connected to the inlet port of the small of the two hollow fiber cartridges so that the fluid which exists from the first electrode compartment enters the interior or the hollow fibers. This outlet port of the hollow fiber cartridge is connected to the inlet port of the second electrode compartment. The inlet port of the first electrode compartment is connected to the outlet port of the ligand extracting station while the outlet port of the second electrode compartment is connected through a pump to the inlet port of the ligand extracting station. In the embodiment shown, the ligand extracting station comprises one or more (one is shown) hollow fiber cartridges 3 inches in diameter and 43 inches in length, arranged for simultaneous parallel flow through the cartridges when more than one is used. Each cartridge contains 660 hollow fibers made of porous polysulfone with an interior silicon rubber skin. The hollow fibers have a membrane surface area of 2.5 m^2 and an interior volume of 646 ml. The space surrounding the hollow fibers is in communication with the electrochemical cell, not the interior of the hollow filbers. A fluid containing the ligand which is being extracted passes through the interior of the hollow fibers.
Approximately 1 liter of the carrier fluid is present in the interior volume of the apparatus as described above and the ligand extracting station together. Carrier fluid containing the ligand carrier having a ligand bound thereto passes from the exit port of the ligand extracting station into the inlet port of the first electrode compartment where a redox reaction takes place in order to release the ligand carrier having a ligand bound thereto passes from the exist port of the ligand extracting station into the inlet port of the first electrode compartment where a redox reaction takes place in order to release the ligand from the ligand carrier. Free ligand, carrier fluid, and nonbinding-state ligand carrier pass from the exist port of the first electrode chamber into the ligand unloading station where ligand passes through the walls of the ligand-permeable membrane and is collected. In the particular illustration shown, oxygen passes directly in the space where it is being utilized. It is also possible to pass fluids or chemical reactants over the outside of the hollow fibers. […]

[1] = 100 mM PAA, 2000 mL/min, pH 7.0, 4 V (ten cell stock)
[2] = 100 mM PAA, 2000 mL/min, pH 7.0, 9 V (ten cell stock)
[3] = 75 mM PAA, 3380 mL/min, pH 5.0, 16 V (ten cell stock)
[4] = 75 mM PAA, 3380 mL/min, pH 5.0, 18 V (ten cell stock)

Structure (SMILES)	EC O2 (electrochemical oxygen production rate) [1]	Power consumed [1]	e-/O2 (electrons passed per molecule of O2 produced) [1]	EC O2 (electrochemical oxygen production rate) [2]	Power consumed [2]	e-/O2 (electrons passed per molecule of O2 produced) [2]	EC O2 (electrochemical oxygen production rate) [3]	Power consumed [3]	e-/O2 (electrons passed per molecule of O2 produced) [3]	EC O2 (electrochemical oxygen production rate) [4]	Power consumed [4]	e-/O2 (electrons passed per molecule of O2 produced) [4]
c1ccc(CNCCCNCCCNCc2ccccn2)nc1 [compound 64]	20.3 mL/min	62 W/L/min.	2.42	72.2 mL/min	118 W/L/min.	2.01	–	–	–	–	–	–
c1ccc(CNCCNCCNCc2ccccn2)nc1 [compound 62]	–	–	–	–	–	–	72.4 mL/min	285 W/L/min.	2.44	94.5 mL/min	320 W/L/min.	2.46
